# Screening data, single-dose tests

From ChEMBL document CHEMBL3988442, “University of Dundee, Small-Polar-MMV Screening Library” (2021).

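Growth of Mycobacterium tuberculosis over 3 days (7H9 medium with glucose and tyloxapol); the read-out is not stated. Concentration: 500 µM. The record gives no direction; compounds that gave an IC50 in retests scored well above the rest, so higher reads as more growth inhibition. Size under these conditions: about 18,000 compounds, about 1,400 of them at 50% or above in at least one test.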

Values are the deposited “Percent Effect”, in %. The controls that fix the scale are not given in the record; negative values are as filed. Compounds were drawn at random from those tested, without regard to their results.

| structure | Percent Effect |
|---|---|
| `Oc1ccnc(C2CCC2)n1` | -6.819 |
| `CC1CN(S(=O)(=O)CCCS(=O)(=O)N(C)C)CCN1` (stereo unspecified) | 4.729 |
| `NCC[C@@H]1CCC(=O)N1` | -3.22 |
| `CC(C)(CNS(N)(=O)=O)N1CCc2ccccc2C1` | -1.057 |
| `CCC(c1ccccn1)N(C)C(=O)c1occc1C` (stereo unspecified) | 28.61 |
| `COc1ccc(NC(=O)NC2CCC(O)CC2)cc1` (stereo unspecified) | -5.769 |
| `CC(C)NC(C)c1nnc2ccccn12` (stereo unspecified) | 5.568 |
| `CC(C)n1ccnc1C1CCN(C(=O)[C@@H](C)O)CC1` | 6.216 |
| `CNC(CO)c1ccc(Cl)cc1` (stereo unspecified) | 8.597 |
| `CCN(C(=O)c1cccnc1)C1CC1` | -4.913 |
| `CC(=O)Nc1cccc(CSC(C)CCO)c1` (stereo unspecified) | 20.4 |
| `CCn1ncnc1CN1CCCC(CS(C)(=O)=O)C1` (stereo unspecified) | 0.4206 |
| `Cc1cncc(C(=O)OC(C)CCN2CCCC2=O)c1` (stereo unspecified) | 7.759 |
| `CN(C)Cc1nc(C(=O)N2CCN(C)CC(O)C2)cs1` (stereo unspecified) | -13.91 |
| `CC(CO)(CO)NC(=O)Nc1cc(Br)ccc1F` | 47.62 |
| `CCCn1cnnc1CNC(=O)C(C)NC(=O)OC` (stereo unspecified) | -9.654 |
| `CN1CCC(CNC(=O)Nc2ccccc2F)CC1` | 15.86 |
| `CC(=O)NCCc1nc(-c2ccc(C)nn2)no1` | -1.222 |
| `CNC1CCN(Cc2ncc(C)c(OC)c2C)CC1` | 27.47 |
| `c1csc(CNCCCn2ccnc2)c1` | -0.08727 |
| `CCC(=O)NC1CNC1` | 2.214 |
| `COc1ccc(OCC(=O)N2CCN(C)CC2)cc1` | 25.68 |
| `COCCC1(CO)CCCN(Cc2c(C)n[nH]c2C)C1` (stereo unspecified) | 4.451 |
| `NC(=O)C1CC(=O)N(Cc2ccccc2C(F)(F)F)C1` (stereo unspecified) | 4.215 |
| `CC1CN(C)CCN1CC(=O)NCc1ccco1` (stereo unspecified) | -2.235 |
| `Cc1ccc(CN(C)C(=O)Cn2cnnn2)o1` | -3.581 |
| `c1n[nH]c2c1CNCC2` | -19.14 |
| `O=C(CNCc1ccco1)Nc1ccccc1` | 44.3 |
| `CN1N=C(C(=O)NCc2ccc(Cl)cc2)CCC1=O` | 73.36 |
| `Cc1cc(CNC(=O)N2CCSCC2)nc(C)n1` | 4.639 |
| `O=C(Nc1nnc(-c2ccccn2)s1)N1CC[C@@H](O)C1` | -2.959 |
| `COC(=O)c1cccc(COC(=O)CCNC(C)=O)c1` | 8.225 |
| `COC(=O)c1cccc(NC(=O)NC[C@@H]2CCCN2)c1` | 9.393 |
| `Cc1cc(C(=O)N(C)CCNS(C)(=O)=O)c(C)o1` | -2.351 |
| `COc1ccc(C)cc1NC(=O)CSc1nncn1C` | 10.94 |
| `CN1CCC(Oc2ccc(N)cn2)CC1` | -908.4 |
| `Cn1cc([C@@H]2[C@@H](CN)CC(=O)N2C(C)(C)C)cn1` | 0.01504 |
| `Cc1cccc(OCC(=O)NCC2CCNCC2)c1` | 24.61 |
| `CC(NC(=O)CS(=O)(=O)c1ncccc1Cl)C1CC1` (stereo unspecified) | 4.62 |
| `CN(C)C(=O)Nc1ccccc1OC(=O)N(C)C` | -5.372 |
| `CN(C)C(CNC(=O)Nc1cn[nH]c1)c1ccco1` (stereo unspecified) | 9.165 |
| `COCCNCCNC(=O)c1ccc(C#N)cc1` | 5.464 |
| `CCNc1nc(C(=O)N(C)Cc2cnccn2)cs1` | 3.729 |
| `CC1COCCN1C(=O)Cc1cccc2cccnc12` (stereo unspecified) | 24.87 |
| `NCC1CCN(Cc2cc(=O)c3cc(F)ccc3[nH]2)C1` (stereo unspecified) | 47.81 |
| `Cn1cccc1C(=O)NCC(O)Cc1ccccc1` (stereo unspecified) | 46.15 |
| `NC1CCN(CC2CC2)C1` (stereo unspecified) | 36.74 |
| `CCn1cc(CNC(=O)c2cccnc2SC)c(C)n1` | 22.29 |
| `CS(=O)(=O)N1CCOc2ncccc21` | -3.525 |
| `CC(C)(C)NC(=O)CNc1cc(CCN)ncn1` | -3.145 |
| `COc1ccc(OC)c(CNc2nc(C)nn2C)c1` | 79.23 |
| `O=C(CCn1cncn1)Nc1nc2ccccc2[nH]1` | -10.82 |
| `OCCOC1CCCNC1` (stereo unspecified) | 5.713 |
| `CSCc1nc(CNC(=O)c2ccnn2C(C)C)cs1` | 37.91 |
| `COCCCOC1CN(C(=O)c2ccc(Cl)cn2)C1` | 61.68 |
| `COc1ccccc1S(=O)(=O)NC1CCN(C)CC1` | 6.804 |
| `CC(=O)c1ccc(C(=O)NC(C)c2nc(C)c[nH]2)s1` (stereo unspecified) | -2.637 |
| `CC(C)CC(=O)Nc1ccc2[nH]c(=O)c(=O)[nH]c2c1` | 5.204 |
| `CN1CCN(C(=O)C2COc3ccccc3O2)CC1=O` (stereo unspecified) | 25.29 |
| `CCOC(=O)N1CCN(C(=O)c2cccc(F)c2)CC1` | 47.34 |
| `CSCCC(O)C(=O)NCC1(Cn2ccnc2)CC1` (stereo unspecified) | -1.335 |
| `CNCc1occc1C` | -9.286 |
| `CC1CCN(C(=O)Cn2cncc(Br)c2=O)CC1` | -4.181 |
| `CNCC1(CO)CCOCC1` | -18.18 |
| `C=C(C)CNC(=O)Nc1cc(F)cc(OC)c1` | 45.71 |
| `CNCCCNC(=O)c1ccc(C)c(C)c1` | 1.275 |
| `CC(N)C(=O)N1CCN(c2ccc(C(N)=O)cc2)CC1` (stereo unspecified) | 8.365 |
| `FC(F)(F)CC1CNCCO1` (stereo unspecified) | 11.57 |
| `Cc1n[nH]c(NCc2ccsc2)n1` | 2.852 |
| `O=C(NCCCn1nccc1C1CC1)c1ccno1` | 27.6 |
| `Cc1cc(CCC(=O)NCCC(N)=O)ccc1Br` | -3.428 |
| `COCC(C)Nc1ccccc1CN1C(=O)CCC1=O` (stereo unspecified) | 24.47 |
| `Cc1cc(S(=O)(=O)N[C@@H]2CCOC[C@H]2O)n(C)n1` | -3.881 |
| `Cc1ccc2[nH]c(C(C)N)nc2c1` (stereo unspecified) | 5.885 |
| `COC(=O)c1ccc(CSc2n[nH]c(=O)n2C)o1` | 20.22 |
| `COc1ccc(CCN)c(O)c1` | 74.96 |
| `Cc1ccnc(NCCS(=O)(=O)NCC2CCC2)c1` | 72.24 |
| `CCOc1ccc2c(c1)C(=O)NC2=O` | 15.61 |
| `COc1ccc(CCN)c(F)c1` | 45.94 |
| `CNC(=O)NC(=O)CN1CCn2ccnc2C1` | -4.377 |
| `OCC1COCCN(Cc2c(F)cccc2Cl)C1` (stereo unspecified) | 36.51 |
| `COCCCN1CCC(CNc2ncncn2)C1` (stereo unspecified) | 7.065 |
| `NC1CCN(c2ncnc3c2CCC3)CC1` | 19.05 |
| `CCCNS(=O)(=O)c1cnn(C)c1` | 12.47 |
| `C[C@@H](CO)Nc1ncc(Cl)cc1Br` | 56.89 |
| `COCc1cc(C)nc(SCC#N)c1C#N` | 4.46 |
| `COCC(C)NC(=O)N(C)Cc1c(C)noc1C` (stereo unspecified) | 10.48 |
| `CC(CNC(=O)C1=NNC(=O)CC1)Oc1cccnc1` (stereo unspecified) | -4.924 |
| `NCC(=O)N1CCCC(CCc2ccc(F)cc2F)C1` (stereo unspecified) | 92.21 |
| `COc1ccc(C(=O)Nc2cnn(C)c2)cc1` | 21.23 |
| `N#Cc1ccc(NCC(=O)NC2CCOCC2)cc1` | 9.593 |

Some entries from above, unchanged:

structure,Percent Effect
NC1CCN(CC2CC2)C1 (stereo unspecified),36.74
Cc1ccc2[nH]c(C(C)N)nc2c1 (stereo unspecified),5.885
c1csc(CNCCCn2ccnc2)c1,-0.08727
CC1CN(S(=O)(=O)CCCS(=O)(=O)N(C)C)CCN1 (stereo unspecified),4.729
CC1CCN(C(=O)Cn2cncc(Br)c2=O)CC1,-4.181
CC1COCCN1C(=O)Cc1cccc2cccnc12 (stereo unspecified),24.87
COCC(C)NC(=O)N(C)Cc1c(C)noc1C (stereo unspecified),10.48
CSCCC(O)C(=O)NCC1(Cn2ccnc2)CC1 (stereo unspecified),-1.335
CNCCCNC(=O)c1ccc(C)c(C)c1,1.275